The other results are listed elsewhere or left out. Most entries show no effect beyond the scatter of the controls.

Protein sequences, listed by entry. Tags and fused reporters are not part of them. Lines headed by an entry give the natural chain unless they say otherwise; changes in a name come on top.
UniProt Q7TPN9: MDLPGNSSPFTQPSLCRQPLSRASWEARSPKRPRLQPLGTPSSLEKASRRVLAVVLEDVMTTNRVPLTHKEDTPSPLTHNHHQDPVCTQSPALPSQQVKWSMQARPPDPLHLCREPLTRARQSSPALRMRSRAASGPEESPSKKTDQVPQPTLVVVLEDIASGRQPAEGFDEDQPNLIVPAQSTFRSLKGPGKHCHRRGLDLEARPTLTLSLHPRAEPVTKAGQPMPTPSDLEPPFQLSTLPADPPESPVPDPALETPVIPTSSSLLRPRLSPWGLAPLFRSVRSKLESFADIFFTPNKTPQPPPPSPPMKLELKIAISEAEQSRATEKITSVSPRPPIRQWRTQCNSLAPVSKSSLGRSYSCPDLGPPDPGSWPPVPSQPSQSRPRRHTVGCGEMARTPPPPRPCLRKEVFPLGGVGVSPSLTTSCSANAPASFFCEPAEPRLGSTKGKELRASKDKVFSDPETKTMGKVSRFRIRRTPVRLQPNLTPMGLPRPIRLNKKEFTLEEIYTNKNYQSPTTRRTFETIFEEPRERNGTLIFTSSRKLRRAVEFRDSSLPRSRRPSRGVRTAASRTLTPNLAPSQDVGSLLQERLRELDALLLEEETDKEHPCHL
UniProt Q80UP5: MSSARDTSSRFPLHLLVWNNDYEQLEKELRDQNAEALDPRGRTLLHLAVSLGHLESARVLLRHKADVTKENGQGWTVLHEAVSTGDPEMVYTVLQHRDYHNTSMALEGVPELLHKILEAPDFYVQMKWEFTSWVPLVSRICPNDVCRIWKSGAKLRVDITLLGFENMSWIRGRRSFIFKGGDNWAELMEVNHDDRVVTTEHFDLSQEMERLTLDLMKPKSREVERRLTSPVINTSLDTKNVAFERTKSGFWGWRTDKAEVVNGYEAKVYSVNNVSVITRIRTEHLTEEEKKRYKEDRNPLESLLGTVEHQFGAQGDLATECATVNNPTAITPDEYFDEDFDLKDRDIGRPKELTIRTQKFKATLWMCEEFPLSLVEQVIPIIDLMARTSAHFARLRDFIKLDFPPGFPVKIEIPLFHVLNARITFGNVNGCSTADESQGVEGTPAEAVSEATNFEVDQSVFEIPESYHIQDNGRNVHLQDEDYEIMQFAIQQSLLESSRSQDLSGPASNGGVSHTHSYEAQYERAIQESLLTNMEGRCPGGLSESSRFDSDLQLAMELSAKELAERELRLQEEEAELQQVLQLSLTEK
UniProt Q715T0: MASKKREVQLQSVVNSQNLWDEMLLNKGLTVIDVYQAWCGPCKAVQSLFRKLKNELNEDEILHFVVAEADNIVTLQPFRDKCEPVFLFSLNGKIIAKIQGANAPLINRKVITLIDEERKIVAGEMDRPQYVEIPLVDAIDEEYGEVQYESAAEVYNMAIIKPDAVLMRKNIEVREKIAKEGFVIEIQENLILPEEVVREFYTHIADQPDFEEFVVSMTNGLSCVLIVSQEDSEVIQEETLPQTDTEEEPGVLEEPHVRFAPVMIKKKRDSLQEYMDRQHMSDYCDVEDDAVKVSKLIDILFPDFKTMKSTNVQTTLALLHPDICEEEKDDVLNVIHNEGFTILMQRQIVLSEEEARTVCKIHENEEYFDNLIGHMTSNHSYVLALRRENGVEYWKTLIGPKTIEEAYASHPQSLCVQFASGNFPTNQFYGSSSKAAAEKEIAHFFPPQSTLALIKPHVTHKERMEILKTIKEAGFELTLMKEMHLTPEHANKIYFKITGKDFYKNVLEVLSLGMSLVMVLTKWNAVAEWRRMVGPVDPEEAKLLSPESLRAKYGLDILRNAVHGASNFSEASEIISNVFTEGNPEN
UniProt Q78JW9: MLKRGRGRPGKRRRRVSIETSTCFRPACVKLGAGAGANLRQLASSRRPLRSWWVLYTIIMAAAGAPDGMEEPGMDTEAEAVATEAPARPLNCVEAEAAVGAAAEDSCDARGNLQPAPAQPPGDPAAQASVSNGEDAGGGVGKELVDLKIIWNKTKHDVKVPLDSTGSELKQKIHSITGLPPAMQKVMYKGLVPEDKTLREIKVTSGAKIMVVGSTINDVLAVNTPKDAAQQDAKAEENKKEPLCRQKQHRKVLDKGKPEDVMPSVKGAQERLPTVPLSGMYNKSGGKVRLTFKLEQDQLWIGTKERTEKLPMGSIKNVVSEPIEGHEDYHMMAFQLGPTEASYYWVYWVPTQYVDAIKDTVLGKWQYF
UniProt Q7TPD0, whole entry: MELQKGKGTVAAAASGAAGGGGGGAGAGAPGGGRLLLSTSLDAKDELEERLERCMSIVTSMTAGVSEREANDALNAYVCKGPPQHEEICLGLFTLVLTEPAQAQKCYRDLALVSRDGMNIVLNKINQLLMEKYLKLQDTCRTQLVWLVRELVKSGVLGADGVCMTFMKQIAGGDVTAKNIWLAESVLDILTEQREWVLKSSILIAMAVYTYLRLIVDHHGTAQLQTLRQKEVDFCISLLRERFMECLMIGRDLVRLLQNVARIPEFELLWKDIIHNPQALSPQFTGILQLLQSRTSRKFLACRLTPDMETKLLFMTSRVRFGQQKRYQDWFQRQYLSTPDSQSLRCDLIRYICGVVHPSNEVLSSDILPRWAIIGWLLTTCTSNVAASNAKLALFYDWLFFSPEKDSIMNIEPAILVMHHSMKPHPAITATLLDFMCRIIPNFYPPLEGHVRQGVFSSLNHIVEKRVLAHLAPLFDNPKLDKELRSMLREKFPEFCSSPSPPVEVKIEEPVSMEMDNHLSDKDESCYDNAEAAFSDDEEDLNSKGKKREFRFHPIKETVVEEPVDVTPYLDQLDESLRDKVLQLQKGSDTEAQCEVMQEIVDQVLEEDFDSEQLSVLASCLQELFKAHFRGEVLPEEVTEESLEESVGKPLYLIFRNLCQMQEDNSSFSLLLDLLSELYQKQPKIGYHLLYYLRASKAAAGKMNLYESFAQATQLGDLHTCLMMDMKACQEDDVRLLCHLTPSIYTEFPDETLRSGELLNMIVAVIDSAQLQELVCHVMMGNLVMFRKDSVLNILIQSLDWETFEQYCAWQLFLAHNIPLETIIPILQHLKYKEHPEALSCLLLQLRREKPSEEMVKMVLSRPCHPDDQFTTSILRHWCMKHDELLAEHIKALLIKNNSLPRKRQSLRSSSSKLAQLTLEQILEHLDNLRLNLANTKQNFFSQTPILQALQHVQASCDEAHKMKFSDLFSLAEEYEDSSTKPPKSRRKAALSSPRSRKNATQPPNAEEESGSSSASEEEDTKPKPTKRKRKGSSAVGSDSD
UniProt Q6ZQM0: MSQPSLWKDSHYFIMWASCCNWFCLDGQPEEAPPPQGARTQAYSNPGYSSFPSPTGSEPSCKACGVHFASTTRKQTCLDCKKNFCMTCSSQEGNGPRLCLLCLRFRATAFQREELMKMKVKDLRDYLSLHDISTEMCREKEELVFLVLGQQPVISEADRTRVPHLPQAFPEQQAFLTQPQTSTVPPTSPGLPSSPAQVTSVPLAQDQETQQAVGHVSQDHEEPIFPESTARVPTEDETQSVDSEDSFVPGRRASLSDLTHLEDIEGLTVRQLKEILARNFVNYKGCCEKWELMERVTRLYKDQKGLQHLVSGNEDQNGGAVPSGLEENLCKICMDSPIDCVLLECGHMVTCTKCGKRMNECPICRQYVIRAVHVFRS
UniProt Q80VC6: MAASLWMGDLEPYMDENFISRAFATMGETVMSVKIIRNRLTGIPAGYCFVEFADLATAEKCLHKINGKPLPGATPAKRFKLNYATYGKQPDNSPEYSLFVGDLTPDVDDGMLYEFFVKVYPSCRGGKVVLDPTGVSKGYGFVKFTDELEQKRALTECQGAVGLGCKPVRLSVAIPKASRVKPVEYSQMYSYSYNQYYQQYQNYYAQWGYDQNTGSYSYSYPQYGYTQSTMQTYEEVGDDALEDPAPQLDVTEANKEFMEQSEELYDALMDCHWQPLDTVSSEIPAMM
UniProt Q80V24: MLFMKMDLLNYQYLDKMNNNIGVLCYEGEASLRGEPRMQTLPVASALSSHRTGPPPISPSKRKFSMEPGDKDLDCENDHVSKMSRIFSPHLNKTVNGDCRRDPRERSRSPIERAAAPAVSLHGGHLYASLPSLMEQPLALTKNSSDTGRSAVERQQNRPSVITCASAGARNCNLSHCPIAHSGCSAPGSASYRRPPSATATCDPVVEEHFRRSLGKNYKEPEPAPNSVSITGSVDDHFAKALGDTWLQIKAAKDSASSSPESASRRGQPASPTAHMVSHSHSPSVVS
UniProt Q6ZQF0, whole entry: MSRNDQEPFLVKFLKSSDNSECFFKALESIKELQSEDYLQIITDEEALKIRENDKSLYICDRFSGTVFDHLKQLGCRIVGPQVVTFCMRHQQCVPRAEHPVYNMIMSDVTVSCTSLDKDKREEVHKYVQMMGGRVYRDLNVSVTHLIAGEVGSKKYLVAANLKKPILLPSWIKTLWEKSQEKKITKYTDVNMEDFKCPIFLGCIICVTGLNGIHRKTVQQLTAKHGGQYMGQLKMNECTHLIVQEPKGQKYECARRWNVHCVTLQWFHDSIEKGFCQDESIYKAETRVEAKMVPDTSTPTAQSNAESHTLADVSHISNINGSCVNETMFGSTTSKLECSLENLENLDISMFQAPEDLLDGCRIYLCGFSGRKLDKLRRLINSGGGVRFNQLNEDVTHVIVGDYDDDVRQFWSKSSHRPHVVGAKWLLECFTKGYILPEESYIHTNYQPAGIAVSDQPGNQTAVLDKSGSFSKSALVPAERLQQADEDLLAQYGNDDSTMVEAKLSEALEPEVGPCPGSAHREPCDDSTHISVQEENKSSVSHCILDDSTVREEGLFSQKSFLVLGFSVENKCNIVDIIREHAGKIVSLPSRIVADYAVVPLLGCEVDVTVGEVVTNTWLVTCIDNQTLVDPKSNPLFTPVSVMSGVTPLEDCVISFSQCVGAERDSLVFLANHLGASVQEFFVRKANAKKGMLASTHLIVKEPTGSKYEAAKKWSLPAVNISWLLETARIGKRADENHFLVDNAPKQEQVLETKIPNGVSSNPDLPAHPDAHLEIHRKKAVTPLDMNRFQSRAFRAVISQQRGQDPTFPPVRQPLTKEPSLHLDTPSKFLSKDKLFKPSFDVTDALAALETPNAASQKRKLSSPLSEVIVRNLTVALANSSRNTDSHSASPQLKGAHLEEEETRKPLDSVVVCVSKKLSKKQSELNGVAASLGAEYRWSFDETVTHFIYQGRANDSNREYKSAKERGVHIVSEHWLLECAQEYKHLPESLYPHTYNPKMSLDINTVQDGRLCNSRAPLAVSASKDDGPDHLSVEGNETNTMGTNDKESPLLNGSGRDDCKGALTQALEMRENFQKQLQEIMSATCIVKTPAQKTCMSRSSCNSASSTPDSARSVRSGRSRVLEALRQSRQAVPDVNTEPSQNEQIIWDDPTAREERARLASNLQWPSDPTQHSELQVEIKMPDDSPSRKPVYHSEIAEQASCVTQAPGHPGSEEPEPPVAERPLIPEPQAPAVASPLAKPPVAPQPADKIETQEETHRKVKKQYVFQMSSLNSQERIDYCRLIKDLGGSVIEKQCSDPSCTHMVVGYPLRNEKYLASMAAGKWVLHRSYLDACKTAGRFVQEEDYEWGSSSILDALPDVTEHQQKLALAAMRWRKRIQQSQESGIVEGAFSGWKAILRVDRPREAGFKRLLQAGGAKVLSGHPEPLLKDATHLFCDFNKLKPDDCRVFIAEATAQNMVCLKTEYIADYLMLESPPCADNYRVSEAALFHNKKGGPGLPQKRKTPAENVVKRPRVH
UniProt Q7TMI3: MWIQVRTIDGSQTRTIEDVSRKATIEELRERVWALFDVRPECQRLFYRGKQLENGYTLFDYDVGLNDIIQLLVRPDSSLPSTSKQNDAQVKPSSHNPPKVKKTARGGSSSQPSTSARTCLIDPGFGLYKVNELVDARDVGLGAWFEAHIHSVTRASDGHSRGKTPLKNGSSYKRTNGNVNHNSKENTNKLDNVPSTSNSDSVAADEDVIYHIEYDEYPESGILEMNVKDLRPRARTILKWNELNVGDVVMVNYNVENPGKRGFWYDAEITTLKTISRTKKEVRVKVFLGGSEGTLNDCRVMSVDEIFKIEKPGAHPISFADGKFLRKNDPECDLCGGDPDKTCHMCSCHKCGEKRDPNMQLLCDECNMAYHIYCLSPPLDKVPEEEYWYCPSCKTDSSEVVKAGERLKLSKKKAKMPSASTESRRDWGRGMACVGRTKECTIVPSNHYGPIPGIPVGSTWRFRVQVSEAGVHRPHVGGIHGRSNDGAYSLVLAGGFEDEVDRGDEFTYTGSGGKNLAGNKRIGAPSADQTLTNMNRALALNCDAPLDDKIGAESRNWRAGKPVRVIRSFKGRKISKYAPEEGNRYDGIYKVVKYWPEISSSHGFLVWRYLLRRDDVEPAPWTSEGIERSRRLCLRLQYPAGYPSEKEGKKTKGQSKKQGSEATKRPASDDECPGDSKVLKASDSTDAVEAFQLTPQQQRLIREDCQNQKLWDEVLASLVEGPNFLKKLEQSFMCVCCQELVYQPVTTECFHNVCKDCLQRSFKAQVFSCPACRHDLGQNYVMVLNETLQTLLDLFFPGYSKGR

Compound in the test: CN[C@@H]1C[C@H]2O[C@@](C)([C@@H]1OC)n1c3ccccc3c3c4c(c5c6ccccc6n2c5c31)C(=O)NC4 [staurosporine]
Kind of test: log2 fold change of tryptic peptide abundance, ligand vs vehicle (limited proteolysis) (log2 ratio); higher = more trypsin-susceptible (destabilized). The settings on record: ligand concentration: 20 uM; sample: mouse liver crude lysate; replicate design: treated separately.
With “UniProt Q7TPN9 (peptide sequence: HTVGCGEMAR, peptide start residue: 389)”, the log2 fold change turned out to be 0.501. “UniProt Q80UP5 (peptide sequence: VYSVNNVSVITR, peptide start residue: 268)”: the log2 fold change was -0.114.

Regarding “UniProt Q715T0 (peptide sequence: NIEVREK, peptide start residue: 170)”, the log2 fold change is -0.452. Under “UniProt Q78JW9 (peptide sequence: GKPEDVMPSVK, peptide start residue: 256)” stands 0.168; under “UniProt Q7TPD0 (peptide sequence: YKEHPEALSCLLLQLRR, peptide start residue: 832)”, 0.458; under “UniProt Q6ZQM0 (peptide sequence: ACGVHFASTTR, peptide start residue: 63)”, 1.09.

As for “UniProt Q80VC6 (peptide sequence: ALTECQGAVGLGCKPVR, peptide start residue: 153)”, the log2 fold change is -0.382. Next, “UniProt Q80V24 (peptide sequence: IFSPHLNK, peptide start residue: 86)”: 0.302; “UniProt Q80U78 (peptide sequence: GNVLVLSQHK, peptide start residue: 1070)”: 0.222; “UniProt Q6ZQF0 (peptide sequence: YLVAANLK, peptide start residue: 156)”: -0.00553. Next, “UniProt Q7TMI3 (peptide sequence: VQVSEAGVHRPHVGGIHGR, peptide start residue: 464)”: -0.333.
